Data reported in patent US6723736B2, “Tricyclic compounds and uses thereof” (Theracos, Inc., priority 2000, dated 2004).
At least one structure is not confirmed: it was looked up by name or label, or the drawing left a doubt.

Legend:
[1] = target: T1, COX-2 (Mus musculus, UniProt Q05769); assay: LPS-induced COX-2 activity in RAW264.7 cells (PGE2 EIA); format: cell-based, murine; details: RAW264.7, LPS 0.1 μg/ml 6 hr; higher concentrations of compound B (1-100 μM tested); dexamethasone 1 μM
T1 construct: examined in LPS-stimulated RAW cells; endogenous in cells; host or cells: RAW264.7 cells, LPS-stimulated (0.1 µg/ml, 6 hr), then lysed
T1 sequence (Q05769 18-604): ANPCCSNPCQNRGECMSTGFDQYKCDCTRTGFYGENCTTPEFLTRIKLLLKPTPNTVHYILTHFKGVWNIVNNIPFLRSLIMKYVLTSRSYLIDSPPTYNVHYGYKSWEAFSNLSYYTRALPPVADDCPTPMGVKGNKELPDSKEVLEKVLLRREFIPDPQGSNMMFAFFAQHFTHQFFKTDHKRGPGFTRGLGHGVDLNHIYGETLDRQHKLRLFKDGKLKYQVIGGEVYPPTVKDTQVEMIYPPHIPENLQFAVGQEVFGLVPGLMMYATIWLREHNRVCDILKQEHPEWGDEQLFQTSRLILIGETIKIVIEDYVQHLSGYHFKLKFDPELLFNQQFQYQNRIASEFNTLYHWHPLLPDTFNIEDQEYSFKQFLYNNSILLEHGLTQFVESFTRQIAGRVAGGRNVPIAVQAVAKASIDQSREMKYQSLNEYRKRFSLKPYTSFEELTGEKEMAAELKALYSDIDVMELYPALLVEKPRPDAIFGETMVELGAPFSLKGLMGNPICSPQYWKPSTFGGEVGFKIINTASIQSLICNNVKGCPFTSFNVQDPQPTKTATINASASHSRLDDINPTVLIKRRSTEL
Description: (§1) In this experiment, the inhibitory effect of compound B was compared to that of dexamethasone, a potent inhibitor of COX-2 expression. RAW264.7 cells were grown in RPMI-1640 medium containing 3% FBS and pre-incubated for 1 hr at 37° C. with compound B (1, 3, 10, 30 or 100 μM), dexamethasone (Dex, 1 μM), or without drug. After 1 hr LPS (0.1 μg/ml) was added, and the cells were further incubated for 6 hr at 37° C. Control cells received neither drug nor LPS. Cells were collected, lysed and assayed for cyclooxygenase activities essentially according to the method of Brideau et al. (Inflamm Res 45:68-74, 1996). COX-2 activity was measured using the Biotrak Prostaglandin E2 (PGE2) EIA Kit, and COX-1 activity was determined using the Biotrak Thromboxane B2 (TXB2) EIA Kit, both from Amersham Pharmacia Biotech (Piscataway, N.J.).

[2] = target: T2, COX-1 (Mus musculus, UniProt P22437); assay: Constitutive COX-1 activity in RAW264.7 cells (TXB2 EIA); format: cell-based, murine; details: RAW264.7, LPS 0.1 μg/ml 6 hr; higher concentrations of compound B (1-100 μM tested); dexamethasone 1 μM
T2 construct: having no effect on the constitutively expressed COX-1 activity; endogenous in cells; host or cells: RAW264.7 cells, then lysed
T2 sequence (P22437 27-602): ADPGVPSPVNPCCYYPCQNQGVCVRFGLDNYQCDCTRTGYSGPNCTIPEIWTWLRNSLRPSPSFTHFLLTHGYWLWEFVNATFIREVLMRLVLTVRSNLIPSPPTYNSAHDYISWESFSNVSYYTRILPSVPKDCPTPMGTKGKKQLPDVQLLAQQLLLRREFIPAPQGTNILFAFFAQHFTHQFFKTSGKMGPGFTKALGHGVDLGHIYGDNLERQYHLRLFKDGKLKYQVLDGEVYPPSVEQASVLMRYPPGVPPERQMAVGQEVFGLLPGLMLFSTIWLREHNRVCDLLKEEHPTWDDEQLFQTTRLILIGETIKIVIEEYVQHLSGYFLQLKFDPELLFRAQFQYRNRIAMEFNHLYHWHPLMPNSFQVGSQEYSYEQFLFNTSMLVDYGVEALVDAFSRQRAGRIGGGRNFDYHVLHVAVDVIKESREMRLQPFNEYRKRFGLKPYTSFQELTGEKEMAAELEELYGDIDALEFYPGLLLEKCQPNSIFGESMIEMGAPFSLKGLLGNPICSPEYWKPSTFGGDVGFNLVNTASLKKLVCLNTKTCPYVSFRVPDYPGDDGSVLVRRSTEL
Description: as §1

C[C@@H]1C[C@H]2[C@@H]3CCC4=CC(=O)C=C[C@]4(C)[C@@]3(F)[C@@H](O)C[C@]2(C)[C@@]1(O)C(=O)CO [dexamethasone, reference compound]
effect on inducible COX-2 activity [1]: completely and selectively abrogated
effect on constitutively expressed COX-1 activity [2]: no effect
